Construct, isoform or probe ends are uncertain for at least one entry. Where cells or extracts were used, other partners may take part.

In data set [1] the test system is NF-kB in 70Z/3 pre-B cell nuclear extract (p50- or p105-containing complex). The data set can be described thus: EMSA. To be noted: 6 phosphorodithioate (S2) linkages: 5'-CCAGGAGATS2TS2CCAC-3' / 3'-GGS2TCCS2TCS2TAAGGS2TG-5'; single complex; anti-p50 supershift; protein in an extract. A general note: Mobility shift assays separate free from complexed probe on a gel.

Data set [2] relates to AP-1 family proteins in 70Z/3 nuclear extract (JunD, CREB, c-Jun, possibly ATF2). The data set can be described thus: EMSA. To be noted: 6 phosphorodithioate (S2) linkages: 5'-CCAGTS2GACTS2CAGTS2G-3' / 3'-GGS2TCACS2TGAGS2TCAC-5'; supershift: JunD, CREB, c-Jun, possibly ATF2; protein in an ….

For CCAGGAGATTCCAC (double strand) [XBY-6], the binding result in data set [1] is on record as “binds”.
On to CCAGTGACTCAGTG (double strand) [XBY-S2], for which the binding result in data set [2] is reported as “binds”.

These data come from patent US20060121489.
